Test results published in patent US8173631B2, “Cyclic amine compounds” (Daiichi Sankyo Company, Limited, priority 2008, dated 2012).
Some entries share one result that the patent states for a list of compounds.

Tested on: PTH secretion
Experiment: Evaluation of PTH secretion promoting activity in a rat (blood serum PTH after oral administration)
Assay type: in vivo
Conditions: female F344 rat, oral 3 mg/5 mL/kg; for blood serum PTH concentration at 5 minutes to 15 minutes: 5 to 15 minutes after administration
Method: Evaluation of PTH Secretion Promoting Activity in a Rat
A 10 to 14-week old female F344 rat (Charles River Japan, Inc.) fasted overnight was anesthetized using ether, and blood serum before the administration was prepared by drawing blood from the jugular vein of the animal. Subsequently, the test compound was orally administered at a dose of 3 mg/5 mL/kg using a solvent (0.5% aqueous methyl cellulose solution containing 5% DMA). Blood was drawn from the jugular vein under ether anesthesia at 5, 15, 30, 60, 120, and 240 minutes after the administration of the test compound, and the blood serum was prepared. The blood serum PTH concentration was measured using rat Intact PTH ELISA kit (manufactured by Immutopics, Inc.).

Cc1ccc(C[C@@H]2CCCN2C[C@@H](O)CO[C@H](C)c2cccc(F)c2CCC(=O)O)cc1Cl [Example 90]
blood serum PTH concentration at 5 minutes to 15 minutes: ≥ 400 pg/mL | blood serum PTH concentration after 240 minutes: ≤ 150 pg/mL

C[C@@H](OC[C@H](O)CN1CCC[C@H]1Cc1ccc(Cl)c(F)c1)c1cccc(F)c1CCC(=O)O [Example 91]
blood serum PTH concentration at 5 minutes to 15 minutes: ≥ 400 pg/mL | blood serum PTH concentration after 240 minutes: ≤ 150 pg/mL

C[C@@H](OC[C@H](O)CN1CCC[C@H]1Cc1ccc(Cl)c(Cl)c1)c1cccc(F)c1CCC(=O)O [Example 92]
blood serum PTH concentration at 5 minutes to 15 minutes: ≥ 400 pg/mL | blood serum PTH concentration after 240 minutes: ≤ 150 pg/mL

CCc1cc(C[C@@H]2CCCN2C[C@@H](O)CO[C@H](C)c2cccc(F)c2CCC(=O)O)ccc1Cl [Example 93]
blood serum PTH concentration at 5 minutes to 15 minutes: ≥ 400 pg/mL | blood serum PTH concentration after 240 minutes: ≤ 150 pg/mL

CC[C@@H](OC[C@H](O)CN1CCC[C@H]1Cc1ccc(C)c(F)c1)c1ccc(Cl)cc1CCC(=O)O [Example 95]
blood serum PTH concentration at 5 minutes to 15 minutes: ≥ 400 pg/mL | blood serum PTH concentration after 240 minutes: ≤ 150 pg/mL

C[C@@H](OC[C@H](O)CN1CCC[C@H]1Cc1ccc(Cl)c(Cl)c1)c1cc(F)ccc1CCC(=O)O [Example 96]
blood serum PTH concentration at 5 minutes to 15 minutes: ≥ 400 pg/mL | blood serum PTH concentration after 240 minutes: ≤ 150 pg/mL

Cc1ccc([C@@H](C)OC[C@H](O)CN2CCC[C@H]2Cc2ccc(Cl)c(Cl)c2)c(CCC(=O)O)c1 [Example 97]
blood serum PTH concentration at 5 minutes to 15 minutes: ≥ 400 pg/mL | blood serum PTH concentration after 240 minutes: ≤ 150 pg/mL

CC[C@@H](OC[C@H](O)CN1CCC[C@H]1Cc1ccc(Cl)c(Cl)c1)c1ccc(Cl)cc1CCC(=O)O [Example 100]
blood serum PTH concentration at 5 minutes to 15 minutes: ≥ 400 pg/mL | blood serum PTH concentration after 240 minutes: ≤ 150 pg/mL

CCc1cc(C[C@@H]2CCCN2C[C@@H](O)CO[C@H](CC)c2cccc(Cl)c2CCC(=O)O)ccc1Cl [Example 114]
blood serum PTH concentration at 5 minutes to 15 minutes: ≥ 400 pg/mL | blood serum PTH concentration after 240 minutes: ≤ 150 pg/mL

CC[C@@H](OC[C@H](O)CN1CCC[C@H]1Cc1ccc(Cl)c(Cl)c1)c1cccc(OC)c1CCC(=O)O [Example 115]
blood serum PTH concentration at 5 minutes to 15 minutes: ≥ 400 pg/mL | blood serum PTH concentration after 240 minutes: ≤ 150 pg/mL

CCc1cc(C[C@@H]2CCCN2C[C@@H](O)CO[C@H](CC)c2cccc(OC)c2CCC(=O)O)ccc1Cl [Example 116]
blood serum PTH concentration at 5 minutes to 15 minutes: ≥ 400 pg/mL | blood serum PTH concentration after 240 minutes: ≤ 150 pg/mL

CC[C@@H](OC[C@H](O)CN1CCC[C@H]1Cc1ccc(Cl)c(Cl)c1)c1cc(F)c(C)cc1CCC(=O)O [Example 118]
blood serum PTH concentration at 5 minutes to 15 minutes: ≥ 400 pg/mL | blood serum PTH concentration after 240 minutes: ≤ 150 pg/mL

CCc1cc(C[C@@H]2CCCN2C[C@@H](O)CO[C@H](CC)c2cc(F)c(C)cc2CCC(=O)O)ccc1Cl [Example 119]
blood serum PTH concentration at 5 minutes to 15 minutes: ≥ 400 pg/mL | blood serum PTH concentration after 240 minutes: ≤ 150 pg/mL

CC[C@@H](OC[C@H](O)CN1CCC[C@H]1Cc1ccc(Cl)c(Cl)c1)c1cccc(C)c1CCC(=O)O [Example 120]
blood serum PTH concentration at 5 minutes to 15 minutes: ≥ 400 pg/mL | blood serum PTH concentration after 240 minutes: ≤ 150 pg/mL

Cc1ccc([C@@H](C)OC[C@H](O)CN2CCC[C@H]2Cc2ccc(C)c(Cl)c2)c(CCC(=O)O)c1 [Example 126]
blood serum PTH concentration at 5 minutes to 15 minutes: ≥ 400 pg/mL | blood serum PTH concentration after 240 minutes: ≤ 150 pg/mL

Cc1ccc(C[C@@H]2CCCN2C[C@@H](O)CO[C@H](C)c2ccc(Cl)cc2CCC(=O)O)cc1Cl [Example 127]
blood serum PTH concentration at 5 minutes to 15 minutes: ≥ 400 pg/mL | blood serum PTH concentration after 240 minutes: ≤ 150 pg/mL

Cc1ccc([C@@H](C)OC[C@H](O)CN2CCC[C@H]2Cc2ccc(Cl)c(F)c2)c(CCC(=O)O)c1 [Example 128]
blood serum PTH concentration at 5 minutes to 15 minutes: ≥ 400 pg/mL | blood serum PTH concentration after 240 minutes: ≤ 150 pg/mL

CC[C@@H](OC[C@H](O)CN1CCC[C@H]1Cc1ccc(C)c(Cl)c1)c1ccc(Cl)cc1CCC(=O)O [Example 129]
blood serum PTH concentration at 5 minutes to 15 minutes: ≥ 400 pg/mL | blood serum PTH concentration after 240 minutes: ≤ 150 pg/mL

C[C@@H](OC[C@H](O)CN1CCC[C@H]1Cc1ccc(Cl)c(F)c1)c1cc(F)ccc1CCC(=O)O [Example 130]
blood serum PTH concentration at 5 minutes to 15 minutes: ≥ 400 pg/mL | blood serum PTH concentration after 240 minutes: ≤ 150 pg/mL

Cc1ccc(C[C@@H]2CCCN2C[C@@H](O)CO[C@H](C)c2cc(F)cc(F)c2CCC(=O)O)cc1Cl [Example 132]
blood serum PTH concentration at 5 minutes to 15 minutes: ≥ 400 pg/mL | blood serum PTH concentration after 240 minutes: ≤ 150 pg/mL

C[C@@H](OC[C@H](O)CN1CCC[C@H]1Cc1ccc(Cl)c(F)c1)c1cc(F)cc(F)c1CCC(=O)O [Example 133]
blood serum PTH concentration at 5 minutes to 15 minutes: ≥ 400 pg/mL | blood serum PTH concentration after 240 minutes: ≤ 150 pg/mL

CC[C@@H](OC[C@H](O)CN1CCC[C@H]1Cc1ccc(C)c(Cl)c1)c1ccc(C)cc1CCC(=O)O [Example 136]
blood serum PTH concentration at 5 minutes to 15 minutes: ≥ 400 pg/mL | blood serum PTH concentration after 240 minutes: ≤ 150 pg/mL

CC[C@@H](OC[C@H](O)CN1CCC[C@H]1Cc1ccc(C)c(Cl)c1)c1cc(F)c(F)cc1CCC(=O)O [Example 144]
blood serum PTH concentration at 5 minutes to 15 minutes: ≥ 400 pg/mL | blood serum PTH concentration after 240 minutes: ≤ 150 pg/mL

CC[C@@H](OC[C@H](O)CN1CCC[C@H]1Cc1ccc(Cl)c(F)c1)c1cc(F)c(F)cc1CCC(=O)O [Example 145]
blood serum PTH concentration at 5 minutes to 15 minutes: ≥ 400 pg/mL | blood serum PTH concentration after 240 minutes: ≤ 150 pg/mL

C[C@@H](OC[C@H](O)CN1CCC[C@H]1Cc1ccc(Cl)c(F)c1)c1cc(F)c(F)cc1CCC(=O)O [Example 149]
blood serum PTH concentration at 5 minutes to 15 minutes: ≥ 400 pg/mL | blood serum PTH concentration after 240 minutes: ≤ 150 pg/mL

Cc1ccc(C[C@@H]2CCCN2C[C@@H](O)CO[C@H](C)c2cccc(Cl)c2CCC(=O)O)cc1Cl [Example 150]
blood serum PTH concentration at 5 minutes to 15 minutes: ≥ 400 pg/mL | blood serum PTH concentration after 240 minutes: ≤ 150 pg/mL

CCc1cc(C[C@@H]2CCCN2C[C@@H](O)CO[C@H](C)c2cccc(Cl)c2CCC(=O)O)ccc1Cl [Example 152]
blood serum PTH concentration at 5 minutes to 15 minutes: ≥ 400 pg/mL | blood serum PTH concentration after 240 minutes: ≤ 150 pg/mL

Cc1ccc(C[C@@H]2CCCN2C[C@@H](O)CO[C@H](C)c2cc(F)c(Cl)cc2CCC(=O)O)cc1F [Example 156]
blood serum PTH concentration at 5 minutes to 15 minutes: ≥ 400 pg/mL | blood serum PTH concentration after 240 minutes: ≤ 150 pg/mL

C[C@@H](OC[C@H](O)CN1CCC[C@H]1Cc1ccc(Cl)c(F)c1)c1ccccc1CCC(=O)O [Example 159]
blood serum PTH concentration at 5 minutes to 15 minutes: ≥ 400 pg/mL | blood serum PTH concentration after 240 minutes: ≤ 150 pg/mL

Cc1cccc([C@@H](C)OC[C@H](O)CN2CCC[C@H]2Cc2ccc(Cl)c(Cl)c2)c1CCC(=O)O [Example 162]
blood serum PTH concentration at 5 minutes to 15 minutes: ≥ 400 pg/mL | blood serum PTH concentration after 240 minutes: ≤ 150 pg/mL

CCc1cc(C[C@@H]2CCCN2C[C@@H](O)CO[C@H](C)c2cccc(C)c2CCC(=O)O)ccc1Cl [Example 163]
blood serum PTH concentration at 5 minutes to 15 minutes: ≥ 400 pg/mL | blood serum PTH concentration after 240 minutes: ≤ 150 pg/mL

CCc1cc(C[C@@H]2CCCN2C[C@@H](O)CO[C@H](C)c2cccc(OC)c2CCC(=O)O)ccc1Cl [Example 165]
blood serum PTH concentration at 5 minutes to 15 minutes: ≥ 400 pg/mL | blood serum PTH concentration after 240 minutes: ≤ 150 pg/mL

Cc1ccc(C[C@@H]2CCCN2C[C@@H](O)CO[C@H](C)c2cc(F)ccc2CCC(=O)O)cc1Cl [Example 166]
blood serum PTH concentration at 5 minutes to 15 minutes: ≥ 400 pg/mL | blood serum PTH concentration after 240 minutes: ≤ 150 pg/mL

COc1cccc([C@@H](C)OC[C@H](O)CN2CCC[C@H]2Cc2ccc(C)c(Cl)c2)c1CCC(=O)O [Example 167]
blood serum PTH concentration at 5 minutes to 15 minutes: ≥ 400 pg/mL | blood serum PTH concentration after 240 minutes: ≤ 150 pg/mL

COc1cccc([C@@H](C)OC[C@H](O)CN2CCC[C@H]2Cc2ccc(Cl)c(F)c2)c1CCC(=O)O [Example 168]
blood serum PTH concentration at 5 minutes to 15 minutes: ≥ 400 pg/mL | blood serum PTH concentration after 240 minutes: ≤ 150 pg/mL

Cc1ccc(C[C@@H]2CCCN2C[C@@H](O)CO[C@H](C)c2cccc(C)c2CCC(=O)O)cc1Cl [Example 169]
blood serum PTH concentration at 5 minutes to 15 minutes: ≥ 400 pg/mL | blood serum PTH concentration after 240 minutes: ≤ 150 pg/mL

CC[C@@H](OC[C@H](O)CN1CCC[C@H]1Cc1ccc(C)c(Cl)c1)c1cccc(OC)c1CCC(=O)O [Example 171]
blood serum PTH concentration at 5 minutes to 15 minutes: ≥ 400 pg/mL | blood serum PTH concentration after 240 minutes: ≤ 150 pg/mL

CC[C@@H](OC[C@H](O)CN1CCC[C@H]1Cc1ccc(Cl)c(F)c1)c1cccc(OC)c1CCC(=O)O [Example 173]
blood serum PTH concentration at 5 minutes to 15 minutes: ≥ 400 pg/mL | blood serum PTH concentration after 240 minutes: ≤ 150 pg/mL

Cc1cc(CCC(=O)O)c([C@@H](C)OC[C@H](O)CN2CCC[C@H]2Cc2ccc(C)c(Cl)c2)cc1F [Example 174]
blood serum PTH concentration at 5 minutes to 15 minutes: ≥ 400 pg/mL | blood serum PTH concentration after 240 minutes: ≤ 150 pg/mL

Cc1ccc(C[C@@H]2CCCN2C[C@@H](O)CO[C@H](C)c2cc(F)c(F)cc2CCC(=O)O)cc1Cl [Example 176]
blood serum PTH concentration at 5 minutes to 15 minutes: ≥ 400 pg/mL | blood serum PTH concentration after 240 minutes: ≤ 150 pg/mL
